The source of these data is publication PMC12040169 (PLOS Biology, 2025).

Some of the results follow.

The experiment relates to T1, CTL2-GFP (C. trachomatis L2/434/Bu, GFP-expressing).
T1 construct: L2/434/Bu, GFP-expressing
The arrangement: species or system HeLa; Intracellular C. trachomatis growth in HeLa cells, bulk GFP fluorescence relative to DMSO. The note with it: bulk GFP, single well; 28.5 h, 10 µM; inhibitor.
As to `O=C(c1cccc(Cl)c1)N1CCC(O)(c2cccnc2)CC1` [CBK283553], the “% of control remaining” value was 85.9979%. As to `O=c1[nH]c(=O)c2ccn([C@H]3C[C@@H](O)[C@@H](CO)O3)c2[nH]1` [CBK201331], the “% of control remaining” value came out at 103.501%. For `CC1CN(C)C(C)CC1OC(=O)C(c1ccccc1)c1ccccc1` (stereo not shown) [CBK087393], the “% of control remaining” value worked out at 111.224%. As for `CCN(CC)C(=O)CN1CCCN(c2nccc(OCCN3CCOCC3)n2)CC1` [CBK084094], the “% of control remaining” value was 122.252%. The same measure for `COc1ccc(Cn2nc(NC(=O)Nc3ccc(N(C)C)cc3)c3ccccc32)cc1` [CBK048529]: 120.994%; for `Cc1ccccc1C(NC(=O)C1CCN(C(=O)N(C)c2ccccc2)CC1)c1ccccn1` (stereo not shown) [CBK059721]: 80.6511%. With `O=C(O)c1ccc(OCCNS(=O)(=O)c2ccc3oc4ccccc4c3c2)cc1` [CBK299797], the “% of control remaining” value worked out at 89.204%. On to `COc1ccc(-c2cncc(C3CN(Cc4ccc(C)cc4OC)CCO3)n2)cc1` (stereo not shown) [CBK286100], for which the “% of control remaining” value is listed as 109.766%.

As to `O=C(CCCc1ccccn1)N(Cc1ccccn1)C1CCCC1` [CBK282033], the “% of control remaining” value stood at 122.594%. Take `Cc1ccc(C(=O)N2CCN(S(=O)(=O)c3cccc([N+](=O)[O-])c3)CC2)cc1` [CBK266259]: the “% of control remaining” value was found to be 118.004%. With `O=C(Cc1ccc(F)cc1)NCCn1nc(-c2ccco2)ccc1=O` [CBK283706], the “% of control remaining” value stood at 132.375%. The same measure for `CCOC(=O)C1=NN(C)c2cnn(Cc3ccc(Cl)cc3)c(=O)c2C1C(=O)CC(C)C` (stereo not shown) [CBK021389]: 116.913%. The same measure for `CC(C)(CO)CNc1nc(-c2ccc(F)cc2)cnc1N` [CBK063589]: 170.936%. Next, `CCCCN(C(C)=O)c1c(CC)nc2ccc(C(=O)NCCCn3ccnc3)cn12` [CBK145759]: 74.9925%.

Consider `COc1ccc(OC)c(/N=C2\CC(=O)CC(C)(C)C2)c1` [CBK020541], for which the “% of control remaining” value was 141.969%. The same measure for `O=C1CN(C(=O)NCc2cccc(C(F)(F)F)c2)CCN1` [CBK155850]: 95.1394%; for `CC(NCC(=O)NC1(C#N)CCCCC1)C(C)n1cccn1` (stereo not shown) [CBK305129]: 129.827%; for `Cn1cc(C(=O)O)c(NC(=O)c2ccccc2Cl)n1` [CBK000353]: 116.614%. Take `Cc1ccc(F)cc1C(=O)NCC1CCN(c2cnn(C)c(=O)c2)C1` (stereo not shown) [CBK307235]: the “% of control remaining” value came out at 112.085%.

Turning to `Cc1cccc(C(=O)NCCCNC(=O)c2ccncc2)c1` [CBK269572], the “% of control remaining” value is 146.372%.

As for `CCN(CC(C)C#N)C(=O)c1nn(-c2ccccc2)c(C)cc1=O` (stereo not shown) [CBK304925], the “% of control remaining” value worked out at 101.023%.

Regarding `Cc1nc(C)n(CC2CCCN(CC(=O)NCc3ccccn3)C2)n1` (stereo not shown) [CBK305291], the “% of control remaining” value is given as 130.326%. Turning to `CC(=O)Nc1ccc(-c2cccc(COC3CCN(C(=O)Cc4ccc(C#N)cc4)CC3)c2)cc1` [CBK149495], the “% of control remaining” value stood at 91.6631%.

In the case of `COc1ccccc1C(=O)N1CCC(Cc2ccccc2-c2ccccc2)(C(N)=O)CC1` [CBK285739], the “% of control remaining” value was determined as 125.203%. Take `Cc1cccc(OCc2nnc(SCC(=O)NC3CCCCC3)o2)c1` [CBK264652]: the “% of control remaining” value came out at 100%.

For the compound `Cc1nc(-c2ccccc2)cc([C@H]2CN3CC[C@H]2C[C@@H]3CNC(=O)NC(C)C)n1` [CBK289126], the “% of control remaining” value is reported as 129.003%. In the case of `OC1(c2ccc(F)cc2)CC2CCC(C1)N2` (stereo not shown) [CBK281947], the “% of control remaining” value is given as 144.646%. Consider `O=C(Nc1ccccc1)c1onc2c1CCCC2` [CBK058703], for which the “% of control remaining” value was 114.817%. For the compound `O=[N+]([O-])c1cc(C(F)(F)F)ccc1NCCNC(=S)Nc1ccc(Cl)cc1` [CBK263578], the “% of control remaining” value came to 71.2625%. Take `O=C(CN1C(=O)c2ccccc2C1=O)NCC1COc2ccccc2O1` (stereo not shown) [CBK222526]: the “% of control remaining” value was found to be 182.263%. For `O=C(NCC1(c2ccccc2Cl)CC1)c1ccc(=O)n(CC(=O)N2CCCCC2)c1` [CBK286077], the “% of control remaining” value is 104.255%. The same measure for `Cc1c(Cl)cccc1S(=O)(=O)N1CCCN(c2nc3ccc(Cl)cc3s2)CC1` [CBK014131]: 114.815%. As for `O=c1c(N2CCCNCC2)nccn1CCOc1ccc(Br)cc1` [CBK028613T], the “% of control remaining” value was 117.586%.

Take `O=C(c1ccncc1)n1nc(NCc2ccccc2)nc1NCc1ccccc1` [CBK269069]: the “% of control remaining” value came to 125.149%. Next, `CCOc1ccc2cc(C3CC(c4ccc(C)cc4)=NN3C(=O)CCC(=O)O)c(Cl)nc2c1` (stereo not shown) [CBK297508]: 121.869%. The same measure for `OCC(O)CN1CCc2ccccc21` (stereo not shown) [CBK260896]: 100%; for `Cc1cc(Br)cc(C)c1NC(=O)CSc1nnc(COc2ccccc2Cl)o1` [CBK264968]: 116.17%. The same measure for `CC(C)(C)c1csc(Nc2nc3cc4c(cc3s2)OCO4)n1` [CBK287491]: 139.744%; for `COc1ccc(Cn2c(C)nc3ccccc32)cc1` [CBK201156]: 88.9643%; for `NC(=O)CN1CC2(CCN(CC3COc4ccccc4O3)CC2)c2ccccc21` (stereo not shown) [CBK143960]: 161.651%. Regarding `CC(C)c1cccc(-n2cc(O)c(C(=O)NCCC(=O)N(C)C)n2)c1` [CBK305234], the “% of control remaining” value is listed as 138.551%. For the compound `N#Cc1c(O)nsc1Nc1ccc(Cl)cc1` [CBK009446], the “% of control remaining” value worked out at 134.467%. For the compound `Cn1cc(CN2CCCN(C(=O)CCCc3ccccn3)CC2)cn1` [CBK305347], the “% of control remaining” value was 111.882%. Consider `O=S(=O)(Cc1ccccc1)Nc1nnc(C(F)(F)F)s1` [CBK045539], for which the “% of control remaining” value was 128.701%.

`CCOCC1CCCN1C(=O)Nc1ccc2sc(C(=O)N(C)C)cc2c1` (stereo not shown) [CBK306601]: the “% of control remaining” value was found to be 130.702%. For the compound `c1ccc(SCCCN2CCNCC2)cc1` [CBK266067G], the “% of control remaining” value is given as 132.082%. On to `CC(C)[C@H](CO)Nc1nccnc1-c1ccco1` [CBK037390], for which the “% of control remaining” value was 130.036%. Take `Cc1cc(C(=O)N2CCN(C)CC2)ccc1-c1cnc(N)c(-c2ccc(O)cc2)n1` [CBK126749]: the “% of control remaining” value is 103.624%.

For the compound `O=C(NCCc1ccccc1Cl)C1(Cc2ccc(-c3cccnc3)cc2)CCOCC1` [CBK285590], the “% of control remaining” value was determined as 74.8639%. Turning to `Cc1nnc(CCn2cnc3cccnc3c2=O)s1` [CBK307125], the “% of control remaining” value is reported as 107.384%. As to `CN(CC(=O)O/N=C(\N)c1ccc(I)cc1)S(=O)(=O)c1cc(Cl)ccc1Cl` [CBK268389], the “% of control remaining” value is 110.575%. For the compound `CCc1nc(CNc2ccc(NC(C)=O)cc2Cl)cs1` [CBK305103], the “% of control remaining” value is 109.848%.

Take `Nc1ncc(-c2cccc3ncccc23)nc1NC1CCOCC1` [CBK063852]: the “% of control remaining” value was determined as 135.05%. With `O=C(CCSc1nc(-c2ccco2)cc(C(F)(F)F)n1)N1CCN(c2ccccn2)CC1` [CBK267626], the “% of control remaining” value came to 99.4746%. Turning to `COc1ccc(-n2c(SCC(=O)c3ccccc3)nc(O)c(Cc3ccccc3)c2=O)cc1` [CBK263398], the “% of control remaining” value is 111.351%. Consider `O=C(O)CC(CN1C(=O)c2ccccc2C1=O)C(=O)c1ccccc1` (stereo not shown) [CBK287221], for which the “% of control remaining” value stood at 109.778%.

On to `N#CCCCN1CCC(Oc2nccnc2OCc2ccc(F)cc2)CC1` [CBK153643], for which the “% of control remaining” value was determined as 94.8888%. On to `COc1ccc(OC(=O)c2ccc3nonc3c2)cc1` [CBK083571], for which the “% of control remaining” value is given as 106.27%. In the case of `O=C(Nc1ccc2cc[nH]c2c1)c1cccnc1` [CBK160053], the “% of control remaining” value came to 131.386%. Turning to `O=C(C1=C(O)C(=O)N(CCCn2ccnc2)C1c1ccncc1)c1cccs1` (stereo not shown) [CBK111017], the “% of control remaining” value was 114.604%. Next, `CCNC(=O)N[C@H]1CO[C@H]2[C@@H]1OC[C@@H]2Nc1nccc(-c2cccc(F)c2)n1` [CBK289536]: 113.64%.

Regarding `CC(C)C(C(=O)O)N(C)C(=O)OCc1ccccc1` (stereo not shown) [CBK286593], the “% of control remaining” value came to 106.037%. Take `CC(=O)NCc1cccc(-c2cc(C(=O)Nc3ccc4c(c3)OCCO4)cnc2O)c1` [CBK149871T]: the “% of control remaining” value was determined as 122.703%. As to `O=C(c1ccc(=O)[nH]n1)N1C2CCC1CC(c1ccc(F)cc1)C2` (stereo not shown) [CBK283737], the “% of control remaining” value was found to be 119.041%. For the compound `CCOc1cc(S(=O)(=O)NCCCN2CCOCC2)c(C)cc1C` [CBK268764], the “% of control remaining” value was 125.502%. With `CSc1cc(C)c2c(c1)COC1(CCN(CC3CC3)CC1)O2` [CBK061383], the “% of control remaining” value was 166.119%.

Turning to `COc1ccc(N2CCN(c3cncc(-c4ccc(C(N)=O)cc4)n3)CC2)cc1OC` [CBK065820], the “% of control remaining” value turned out to be 193.07%. With `COc1cccc(NC(=O)CN2CCC(NC(=O)c3cccs3)CC2)c1` [CBK305800], the “% of control remaining” value was found to be 109.698%. In the case of `Fc1ccc(-c2cccc(N3CCN(c4ccccn4)CC3)n2)cc1Cl` [CBK036877], the “% of control remaining” value came out at 87.5501%. Next, `Cc1cccn2c(CN3CCC(O)CC3)c(C(=O)N3CCCCC3)nc12` [CBK307639]: 140.968%. Turning to `Cc1nnc(CS(=O)(=O)Cc2csc(C(C)(C)C)n2)n1C1CC1` [CBK305489], the “% of control remaining” value came out at 122.349%. As for `O=CN1C2CCC1c1cnc3cc(-c4cccc(F)c4)nn3c1C2` (stereo not shown) [CBK282269], the “% of control remaining” value is recorded as 126.598%.

Regarding `Cc1ccc(C(=O)O)cc1NC(=O)C1CCCCC1C(=O)O` (stereo not shown) [CBK263679], the “% of control remaining” value came out at 112.11%. `Cc1ccn(CCNC(=O)CCN2Cc3ccccc3C2=O)n1` [CBK282655]: the “% of control remaining” value is 104.453%. The same measure for `CCOCc1nc2c(c(NCc3cc(C)on3)n1)CCN(C(C)=O)CC2` [CBK307512]: 99.1273%. The same measure for `CCNC(=O)C1(Cc2ccccc2-c2ccccc2C)CCN(C(=O)c2ccccc2)CC1` [CBK285716]: 96.8435%; for `N#CCCN1CCC2(CC1)NCCc1c2[nH]c2ccccc12` [CBK039788]: 151.97%; for `CCOC(=O)C(CNC(=O)c1cnc(C)c(Br)c1Cl)Cc1ccccc1` (stereo not shown) [CBK305247]: 101.554%. Next, `O=C(NC(=S)N1C[C@@H]2C[C@@H](C1)c1cccc(=O)n1C2)c1ccco1` [CBK288492]: 92.4155%.
